Measured values: PubChem BioAssay AID2685 (National Center for Advancing Translational Sciences (NCATS), 2010)
Some of the results follow. The main result of the screen is listed elsewhere. These columns were measured beside it and carry no call. Compounds called inactive in the main read-out are mostly missing here. Potencies come from curve fits of mixed quality, noted in brackets.

Experiment: qHTS Assay for Lipid Storage Modulators in Drosophila S3 Cells;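 for cell number change: cells counted by Cell Tracker Red CMTPX staining in the red channel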
Conditions: BODIPY lipid droplet fluorescence, 18-24 h; for cell number change: measured here: cell count max response, cells fed with added oleic acid
Summary of the method: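 Drosophila S3 cells got compounds at several concentrations plus oleic acid (400 uM solution). Laser-scanning cytometry with 488 nm excitation read lipid droplets at 500-530 nm and cells at 575-640 nm. Percent activity was relative to 20 uM Triacsin C.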

[1] = measured here: lipid fluorescence (Fed channel) AC50, cells fed with added oleic acid
[2] = measured here: cell number channel AC50, cells fed with added oleic acid

Row | Structure (SMILES) | cell number change [%] | AC50 [1] | AC50 [2]
1 | COc1cc(NC(=O)COC(=O)CC(NC(C)=O)c2ccccc2)cc(OC)c1 (configuration not stated) | -5.71 |  | 
2 | O=C(NCCNc1ccc(Cl)cc1[N+](=O)[O-])c1ccccc1F | -24.9 | 13 µM [falling, partial curve, poor fit] | 
3 | CCOc1cc(N2CCOCC2)c(OCC)cc1NC(=O)CSc1ncccn1 |  | 4.11 µM [rising, partial curve, poor fit] | 
4 | Cc1cc(C)nc(NC(=O)c2cccc(Cl)c2)n1 | 0.183 | 0.92 µM [rising, full curve, poor fit] | 
5 | CCCSCCCNC(=O)c1cc2c(s1)CS(=O)(=O)C2 | 46.2 |  | 6.51 µM [rising, partial curve]
6 | CON/C=C(\C=Nc1ccc(F)cc1)c1ncc(C(F)(F)F)cc1Cl |  |  | 0.103 µM [falling, full curve, poor fit]
7 | O=C(OCC1COc2ccccc2O1)c1c(F)cccc1F (configuration not stated) | -0.908 |  | 
8 | O=C(CSc1ccc(-c2ccco2)nn1)Nc1cccc(F)c1 | -19.1 | 14.6 µM [falling, partial curve, poor fit] | 
9 | O[C@@H]1C2CCCC1[C@]1(O)CCCCC1C2 (some centres not stated) | 25.6 |  | 
10 | Cc1ccc(C(=O)OCC(=O)Nc2ccc(N3CCOCC3)cc2)cc1 | -32.9 |  | 2.06 µM [falling, full curve, poor fit]
11 | Cc1ccccc1NC(=O)c1nn(C)c2c1CS(=O)(=O)c1ccccc1-2 | -16.9 |  | 
12 | Cc1ccccc1C1NC(c2ccccc2C)C(C)C(=O)C1C (configuration not stated) | 6.97 | 18.4 µM [falling, single point] | 
13 | COc1ccc(S(=O)(=O)Nc2ccc3c(c2)N(C(C)=O)CCC3)cc1 | 80.8 |  | 20.6 µM [rising, partial curve]
14 | Cc1ccc(-c2nc(C)c(C(=O)O)s2)cc1 | 25.3 | 20.6 µM [rising, single point] | 
15 | CCc1ccccc1NC(=O)CSc1nnc([C@@H]2CCCN2C(=O)OC(C)(C)C)o1 | -0.895 | 9.2 µM [rising, partial curve] | 
16 | Cc1nc2ccccc2c2oc(C(=O)NCCCN3CCCC(C)C3)cc12 (configuration not stated) | 9.55 | 20.6 µM [rising, single point] | 
17 | CCCCSc1nnc(-c2ccc(NC(=O)CC)cc2)n1C | -18.8 | 0.00411 µM [falling, full curve, poor fit] | 
18 | COc1cccc(/C=N/NC(=O)CC(C)O)c1OC/C=C/c1ccccc1 (configuration not stated) | -23.7 |  | 
19 | Cc1nc(NCc2ccco2)c2c(C)c(C)sc2n1 | 9.51 | 2.06 µM [rising, partial curve] | 
20 | O=C(COc1cc2oc(=O)c3c(c2cc1Cl)CCC3)NCC(O)c1ccccc1 (configuration not stated) | -24.2 | 29.1 µM [falling, single point] | 0.184 µM [falling, full curve, poor fit]
21 | NS(=O)(=O)c1cccc(NC(=O)CCc2ccc(S(=O)(=O)N3CCOCC3)cc2)c1 | 5 |  | 

Row | Structure (SMILES) | cell number change [%] | AC50 [1] | AC50 [2]
22 | NC(=O)c1nsc(C(=O)N(c2ccc(F)cc2)C(C(=O)NCC2CCCO2)c2c[nH]c3ccccc23)c1N (configuration not stated) | -4.35 |  | 
23 | Cc1ccc(NC(=O)Cn2c(CCC(=O)O)ccc2-c2cccs2)cc1 | 21.2 | 0.00461 µM [falling, full curve, poor fit] | 
24 | CC(Sc1ccccc1)C(=O)Nc1ccc(N2CCOCC2)cc1 (configuration not stated) |  |  | 3.66 µM [rising, partial curve]
25 | Cc1nn(-c2ccccc2)c2[nH]c(=O)cc(C(F)F)c12 | -10.2 | 8.2 µM [rising, partial curve] | 
26 | CCc1ccc(NC(=S)/N=C(\N)Nc2nc(C)c3cc(CC)ccc3n2)cc1 | -59.4 |  | 29.1 µM [falling, single point]
27 | COc1cc(-c2nc3cnccn3c2NC(C)(C)CC(C)(C)C)ccc1O | -19 | 2.91 µM [falling, full curve] | 
28 | CC(C)c1onc(C(=O)N(C)Cc2ccccc2)c1[N+](=O)[O-] |  |  | 0.0058 µM [rising, full curve, poor fit]
29 | COc1ccccc1CC(=O)Nc1cccc(S(=O)(=O)N2CCOCC2)c1 | 16.2 | 6.51 µM [rising, partial curve, poor fit] | 
30 | O=C(O)CCC(=O)N1N=C(c2ccccc2)CC1c1ccc(Br)cc1 (configuration not stated) | -11.5 | 6.51 µM [rising, single point] | 
31 | O=C(O)CCc1ccc(-c2cccs2)n1-c1ccc(C(=O)O)cc1 | 0.759 | 0.00461 µM [rising, full curve, poor fit] | 
32 | O=C(NCc1cccc(Cl)c1)c1ccc(N2CC3CC(C2)c2cccc(=O)n2C3)c(NC(=O)c2cccnc2)c1 (configuration not stated) | 20.5 |  | 
33 | Cc1ccc2c(c1)N(C(=O)CCC(=O)NC1CCCCCC1)CC(C)O2 (configuration not stated) | 9.22 | 25.9 µM [falling, single point] | 
34 | Cc1n[nH]c(=S)n1/N=C/c1ccc(OCc2ccc(Cl)cc2)cc1 | -12.8 | 2.31 µM [rising, partial curve, poor fit] | 
35 | CCN(CC)S(=O)(=O)c1ccc(C(=O)Nc2nnc(C(C)C)s2)cc1 |  |  | 2.31 µM [rising, single point]
36 | CN(C)C(CNC(=O)c1cccnc1Sc1ccccc1)c1ccco1 (configuration not stated) | 21 | 6.51 µM [falling, single point] | 
37 | CN1CCN(C(=O)c2ccccc2NC(=O)c2sc3ccccc3c2Cl)CC1 | -18.5 | 0.651 µM [falling, partial curve, poor fit] | 
38 | O=C(CN(C(=O)CNC(=O)c1cccs1)c1ccccc1F)NC1CCCCC1 | 11.8 |  | 
39 | O=[N+]([O-])c1ccc2nc(-c3ccccn3)[nH]c2c1 | -33.5 | 16.4 µM [falling, partial curve] | 
40 | Cc1[nH]c2ccccc2c1Cc1nnc(SCC(N)=O)o1 | 17.6 | 3.26 µM [falling, single point] | 
41 | COc1ccc(CC(=O)NCC(=O)N=Nc2c(O)[nH]c3ccccc23)cc1 | -13.2 | 14.6 µM [rising, partial curve] | 
42 | O=C1C(Cl)=C(NCc2cccnc2)C(=O)c2ccccc21 | -7.09 | 29.1 µM [falling, single point] | 

Row | Structure (SMILES) | cell number change [%] | AC50 [1] | AC50 [2]
43 | CSc1ccc(/C=N/Nc2nc(C)cc(C)n2)cc1 | 34.5 | 2.91 µM [rising, full curve, poor fit] | 0.366 µM [rising, full curve]
44 | NCCCCCC(=O)N/N=C/c1coc2ccccc2c1=O |  | 7.31 µM [falling, partial curve] | 
45 | Cc1csc(NC(=O)C2C3C=CC(C3)C2C(=O)O)n1 (configuration not stated) | -66.4 | 29.1 µM [falling, partial curve] | 23.1 µM [falling, partial curve, poor fit]
46 | COC(=O)c1cc(C)sc1NC(=O)c1cccnc1 | 31.3 | 0.731 µM [falling, single point] | 29.1 µM [rising, single point]
47 | CCCc1cc(=O)[nH]c(NCc2ccc(Cl)cc2)n1 | -51.9 | 29.1 µM [falling, single point] | 20.6 µM [falling, single point]
48 | CC(=O)c1cccc(NC(=O)CCCCCn2nnc3ccccc3c2=O)c1 | 8.51 | 0.651 µM [falling, partial curve, poor fit] | 
49 | O=C(C1CCN(S(=O)(=O)c2ccc(F)cc2)CC1)N1CC=C(c2ccccc2)CC1 |  | 6.51 µM [rising, single point] | 
50 | NC(=S)n1[nH]c(-c2ccc([N+](=O)[O-])cc2)c(N=Nc2cccc(Cl)c2)c1=O | -35 |  | 32.6 µM [falling, single point]
51 | Cn1cnnc1SCC(=O)c1ccc2c(c1)OCCO2 |  | 6.51 µM [falling, single point] | 
52 | O=C(/C=C/c1cccc(C(F)(F)F)c1)N1CCN(c2ccccn2)CC1 | 17.9 | 6.51 µM [falling, single point] | 
53 | COC(C)(C)[C@]12CC(O)(c3ccccc3)ON1[C@H]1CCCCC1N2O (some centres not stated) | 2.59 | 32.6 µM [falling, partial curve, poor fit] | 
54 | O=C1NC(c2ccccc2)Oc2ccccc21 (configuration not stated) | 8.79 |  | 
55 | CCOC(=O)CN1CCc2c(C)nc3c(-c4ccc(OC)c(OC)c4)cnn3c21 |  | 6.51 µM [rising, single point] | 
56 | O=C(OCc1nnc(-c2ccccc2)o1)C1CC(=O)N(c2ccccc2)C1 (configuration not stated) | 7.92 | 6.51 µM [falling, single point] | 
57 | COc1ccc(OCC(=O)NCCCNC(=O)COc2ccc(OC)cc2)cc1 | -3.63 | 6.51 µM [rising, partial curve, poor fit] | 
58 | CN(C)C(=O)C12CCC(C)(C(=O)C1Br)C2(C)C (configuration not stated) | -22.5 |  | 
59 | COc1cccc(C2=CC(=O)C[C@H](c3ccc4c(c3)OCO4)C2)c1OC | -30.2 | 0.58 µM [falling, partial curve] | 0.651 µM [falling, partial curve, poor fit]
60 | COc1ccc(/C=C(/NC(=O)c2ccccc2)C(=O)NCc2ccco2)cc1 | 3.85 |  | 
61 | CCOC(=O)c1cc(-c2ccccc2C)nn1Cc1cc(C)no1 | -26.2 | 1.46 µM [rising, partial curve, poor fit] | 
62 | N#CC(C(=O)Nc1ccc(Cl)c(Cl)c1)=C1Nc2ccccc2N1 | -72.2 | 23.1 µM [falling, partial curve] | 25.9 µM [falling, partial curve]
63 | Cc1ccc(NCc2nnc(SCC(=O)NCCc3ccccc3)n2C)cc1 | 45.1 |  | 8.2 µM [rising, partial curve, poor fit]
